Experimental data reported in PMC12073159, “Inhibition Mechanism of Mulberry Prenylated Flavonoids Sanggenone D/Kuwanon G Against α-Glucosidase and the Regulation of Glucose via GLUT4 Pathway” (Nutrients, 2025).

Legend:
α-glucosidase [1] = test: FT-IR measurement of secondary conformation (amide I band); settings: kuwanon G 100 μg/mL, sanggenone D 150 μg/mL; for β-antiparallel content of the α-glucosidase complex: free enzyme 9.53%; for β-sheet content of the α-glucosidase complex: free enzyme 20.96%; for α-helix content of the α-glucosidase complex: free enzyme 26.32%; for Peak position of the amide I band after adding compound: free enzyme 1656 cm^−1
α-glucosidase [2] = test: Fluorescence quenching spectroscopy (Stern–Volmer); format: binding
Description: A total of 100 μL of 1 U/mL α-glucosidase extract was mixed with […] of different concentrations (sanggenone D: 0, 1, 5, 10, 20, 50, 60 μg/mL; kuwanon G: 0, 1, 5, 10, 20, 40, 60 μg/mL) and incubated at three temperatures of 298 K, 304 K, and 310 K for 5 min. Then, the mixture were scanned with fluorescence spectroscopy (SpectraMax i3x, Molecular Devices, LLC., San Jose, CA, USA). The excitation wavelength was set at 280 nm, the emission wavelength was 300–500 nm, and the widths of both excitation and emission slits were 5 nm. The fluorescence quenching parameters were calculated according to the following equations.
Stern–Volmer dynamic collision quenching equation:(5) F0/F=1+KSVQ=1+Kqτ0Q (6) lgF0−F/F=lgKa+nlg[Q]
F0 and F represent the fluorescence intensity peaks of α-glucosidase without and with the compound, respectively; [Q] is the sample concentration; and τ0 is the protein’s average lifetime (10^−8 s).

Row | SMILES | β-antiparallel content of the α-glucosidase complex (α-glucosidase [1]) [%] | β-sheet content of the α-glucosidase complex (α-glucosidase [1]) [%] | α-helix content of the α-glucosidase complex (α-glucosidase [1]) [%] | Peak position of the amide I band after adding compound (α-glucosidase [1]) [cm⁻¹] | Quenching type of α-glucosidase fluorescence (α-glucosidase [2]) | n (number of binding sites) (α-glucosidase [2]; 298 K) | n (number of binding sites) (α-glucosidase [2]; 304 K) | n (number of binding sites) (α-glucosidase [2]; 310 K)
1 | CC(C)=CCc1c(-c2ccc(O)cc2O)oc2c([C@H]3C=C(C)C[C@@H](c4ccc(O)cc4O)[C@@H]3C(=O)c3ccc(O)cc3O)c(O)cc(O)c2c1=O [kuwanon G] | 2.17 | 36.82 | 19.46 | 1637 | static quenching type | 0.96 | 1.15 | 1.43
2 | CC(C)=CCC12Oc3cc(O)ccc3C1(O)Oc1cc(O)c(C3C=C(C)CC(c4ccc(O)cc4O)C3C(=O)c3ccc(O)cc3O)c(O)c1C2=O (stereo not shown) [sanggenone D] | 2.67 | 39.16 | 15.20 | 1639 | static quenching type | 0.81 | 0.93 | 1.22
